In the supplement of paper PMC10849652 one finds log2 fold change data, which are given here for 23 targets.

Chains of the proteins cited; added tags and fusions are not shown. Lines headed by an entry give the natural chain unless they say otherwise; changes in a name come on top.
UniProt Q9C004: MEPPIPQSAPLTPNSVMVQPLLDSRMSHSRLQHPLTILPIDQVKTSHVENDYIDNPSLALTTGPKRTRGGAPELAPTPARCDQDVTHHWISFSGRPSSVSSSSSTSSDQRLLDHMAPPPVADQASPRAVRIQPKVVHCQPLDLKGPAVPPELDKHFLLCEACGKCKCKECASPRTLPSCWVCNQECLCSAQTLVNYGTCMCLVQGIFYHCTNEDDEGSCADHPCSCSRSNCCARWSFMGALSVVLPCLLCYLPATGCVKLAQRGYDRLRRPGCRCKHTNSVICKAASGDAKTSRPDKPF
UniProt Q9BXP5: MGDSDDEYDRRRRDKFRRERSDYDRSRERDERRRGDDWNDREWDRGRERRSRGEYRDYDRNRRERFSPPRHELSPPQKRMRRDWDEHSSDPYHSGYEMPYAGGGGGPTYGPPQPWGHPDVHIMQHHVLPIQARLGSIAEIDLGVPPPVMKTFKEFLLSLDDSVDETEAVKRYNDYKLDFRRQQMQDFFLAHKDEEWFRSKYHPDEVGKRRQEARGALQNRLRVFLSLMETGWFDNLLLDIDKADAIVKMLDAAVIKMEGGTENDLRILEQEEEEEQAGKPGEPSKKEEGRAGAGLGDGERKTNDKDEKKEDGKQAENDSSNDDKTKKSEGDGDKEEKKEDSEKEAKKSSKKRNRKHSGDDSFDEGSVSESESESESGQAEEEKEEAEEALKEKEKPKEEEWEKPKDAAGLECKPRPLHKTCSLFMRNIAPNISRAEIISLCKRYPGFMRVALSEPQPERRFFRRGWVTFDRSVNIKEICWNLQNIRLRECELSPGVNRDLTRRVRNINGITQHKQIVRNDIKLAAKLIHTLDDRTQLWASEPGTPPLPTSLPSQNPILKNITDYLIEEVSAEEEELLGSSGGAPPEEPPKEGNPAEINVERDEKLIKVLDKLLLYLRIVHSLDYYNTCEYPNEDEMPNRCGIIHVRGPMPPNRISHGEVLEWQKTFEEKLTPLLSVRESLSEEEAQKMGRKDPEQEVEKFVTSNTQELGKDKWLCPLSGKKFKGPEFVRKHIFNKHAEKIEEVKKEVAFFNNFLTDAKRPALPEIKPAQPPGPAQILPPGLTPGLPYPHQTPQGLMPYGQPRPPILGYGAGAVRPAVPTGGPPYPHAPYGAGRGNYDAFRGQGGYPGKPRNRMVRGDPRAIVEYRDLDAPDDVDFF
UniProt P61009: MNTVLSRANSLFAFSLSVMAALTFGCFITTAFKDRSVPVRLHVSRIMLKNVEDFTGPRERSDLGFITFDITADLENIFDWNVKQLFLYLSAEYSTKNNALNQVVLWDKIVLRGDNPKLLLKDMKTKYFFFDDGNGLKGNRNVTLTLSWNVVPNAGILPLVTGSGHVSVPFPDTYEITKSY
UniProt Q9NYA1, whole entry, looked up: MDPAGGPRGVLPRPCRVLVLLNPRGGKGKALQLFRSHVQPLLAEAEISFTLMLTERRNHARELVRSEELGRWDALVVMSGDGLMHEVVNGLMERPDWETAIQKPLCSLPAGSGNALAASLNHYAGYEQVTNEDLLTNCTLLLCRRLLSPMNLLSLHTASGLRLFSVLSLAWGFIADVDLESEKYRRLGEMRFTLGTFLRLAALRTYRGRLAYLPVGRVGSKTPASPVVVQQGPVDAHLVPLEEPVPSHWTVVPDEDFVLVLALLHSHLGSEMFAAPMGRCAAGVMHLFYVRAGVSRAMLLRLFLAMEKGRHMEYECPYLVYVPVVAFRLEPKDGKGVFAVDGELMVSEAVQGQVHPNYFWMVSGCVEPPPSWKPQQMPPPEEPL
UniProt Q8WW59: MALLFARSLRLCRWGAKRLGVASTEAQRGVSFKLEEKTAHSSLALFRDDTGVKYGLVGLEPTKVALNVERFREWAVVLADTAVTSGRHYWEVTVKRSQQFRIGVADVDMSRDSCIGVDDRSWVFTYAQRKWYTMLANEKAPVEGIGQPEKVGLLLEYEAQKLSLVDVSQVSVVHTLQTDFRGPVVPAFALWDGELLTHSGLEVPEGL
UniProt Q9GZT4: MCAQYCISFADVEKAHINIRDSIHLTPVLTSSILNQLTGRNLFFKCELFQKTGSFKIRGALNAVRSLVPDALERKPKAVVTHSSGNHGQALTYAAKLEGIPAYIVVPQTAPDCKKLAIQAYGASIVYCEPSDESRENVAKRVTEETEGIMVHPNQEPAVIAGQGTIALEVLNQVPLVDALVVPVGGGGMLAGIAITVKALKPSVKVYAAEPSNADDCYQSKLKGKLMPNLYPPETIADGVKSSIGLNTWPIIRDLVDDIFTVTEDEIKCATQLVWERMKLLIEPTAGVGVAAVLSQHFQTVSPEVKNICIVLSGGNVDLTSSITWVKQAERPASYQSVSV
UniProt P43307: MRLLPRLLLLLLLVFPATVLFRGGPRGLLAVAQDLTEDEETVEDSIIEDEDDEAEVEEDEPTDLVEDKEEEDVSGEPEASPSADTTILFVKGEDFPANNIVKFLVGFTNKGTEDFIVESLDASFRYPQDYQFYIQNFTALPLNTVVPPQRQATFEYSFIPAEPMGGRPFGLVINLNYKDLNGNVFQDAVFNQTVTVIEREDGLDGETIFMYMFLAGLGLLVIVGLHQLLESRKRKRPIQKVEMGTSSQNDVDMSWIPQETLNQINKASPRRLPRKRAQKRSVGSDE
UniProt Q9Y657, whole entry, looked up: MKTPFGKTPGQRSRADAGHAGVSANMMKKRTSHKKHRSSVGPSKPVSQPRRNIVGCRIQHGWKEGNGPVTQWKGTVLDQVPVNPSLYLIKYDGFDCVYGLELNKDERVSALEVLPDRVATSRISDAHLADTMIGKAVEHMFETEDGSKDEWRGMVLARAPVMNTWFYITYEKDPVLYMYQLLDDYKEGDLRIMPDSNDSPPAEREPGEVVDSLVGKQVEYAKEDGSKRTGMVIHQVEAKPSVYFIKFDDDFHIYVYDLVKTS
UniProt P19623: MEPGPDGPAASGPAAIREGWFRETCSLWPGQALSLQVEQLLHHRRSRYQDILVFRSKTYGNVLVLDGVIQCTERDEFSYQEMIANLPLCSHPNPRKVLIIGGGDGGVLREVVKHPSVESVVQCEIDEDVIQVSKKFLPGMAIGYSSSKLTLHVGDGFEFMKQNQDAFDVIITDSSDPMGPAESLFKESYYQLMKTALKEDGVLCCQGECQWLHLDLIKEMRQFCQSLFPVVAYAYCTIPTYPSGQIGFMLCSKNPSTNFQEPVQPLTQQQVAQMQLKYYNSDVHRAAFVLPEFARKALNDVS
UniProt Q14534: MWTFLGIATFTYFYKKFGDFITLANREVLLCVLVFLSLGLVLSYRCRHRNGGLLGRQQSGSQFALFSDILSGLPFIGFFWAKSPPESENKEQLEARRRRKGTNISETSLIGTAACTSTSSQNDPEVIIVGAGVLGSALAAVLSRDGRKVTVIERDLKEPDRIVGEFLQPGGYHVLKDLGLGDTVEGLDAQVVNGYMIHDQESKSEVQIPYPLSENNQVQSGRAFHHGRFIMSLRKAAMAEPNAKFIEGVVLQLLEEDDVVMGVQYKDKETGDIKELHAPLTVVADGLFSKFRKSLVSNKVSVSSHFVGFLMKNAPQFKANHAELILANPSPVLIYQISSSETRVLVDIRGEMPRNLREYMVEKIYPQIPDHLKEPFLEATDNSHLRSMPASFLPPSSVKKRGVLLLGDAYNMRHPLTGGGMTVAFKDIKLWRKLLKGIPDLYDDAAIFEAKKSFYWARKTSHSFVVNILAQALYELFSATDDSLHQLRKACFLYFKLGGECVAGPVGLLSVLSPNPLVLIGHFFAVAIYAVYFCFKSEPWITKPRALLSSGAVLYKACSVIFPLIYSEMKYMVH
UniProt Q15831: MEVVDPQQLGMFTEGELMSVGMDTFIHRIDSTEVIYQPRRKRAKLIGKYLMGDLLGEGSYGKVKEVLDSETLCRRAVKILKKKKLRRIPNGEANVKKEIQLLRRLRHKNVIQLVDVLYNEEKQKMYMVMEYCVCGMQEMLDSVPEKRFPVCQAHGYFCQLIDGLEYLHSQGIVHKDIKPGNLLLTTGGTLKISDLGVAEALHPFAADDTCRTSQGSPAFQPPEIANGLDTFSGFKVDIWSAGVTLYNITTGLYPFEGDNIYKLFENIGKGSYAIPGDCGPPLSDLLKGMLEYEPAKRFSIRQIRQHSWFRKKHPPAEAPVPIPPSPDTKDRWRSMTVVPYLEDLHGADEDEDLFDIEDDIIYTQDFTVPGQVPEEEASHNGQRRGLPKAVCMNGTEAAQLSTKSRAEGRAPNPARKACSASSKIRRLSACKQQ
UniProt Q92783: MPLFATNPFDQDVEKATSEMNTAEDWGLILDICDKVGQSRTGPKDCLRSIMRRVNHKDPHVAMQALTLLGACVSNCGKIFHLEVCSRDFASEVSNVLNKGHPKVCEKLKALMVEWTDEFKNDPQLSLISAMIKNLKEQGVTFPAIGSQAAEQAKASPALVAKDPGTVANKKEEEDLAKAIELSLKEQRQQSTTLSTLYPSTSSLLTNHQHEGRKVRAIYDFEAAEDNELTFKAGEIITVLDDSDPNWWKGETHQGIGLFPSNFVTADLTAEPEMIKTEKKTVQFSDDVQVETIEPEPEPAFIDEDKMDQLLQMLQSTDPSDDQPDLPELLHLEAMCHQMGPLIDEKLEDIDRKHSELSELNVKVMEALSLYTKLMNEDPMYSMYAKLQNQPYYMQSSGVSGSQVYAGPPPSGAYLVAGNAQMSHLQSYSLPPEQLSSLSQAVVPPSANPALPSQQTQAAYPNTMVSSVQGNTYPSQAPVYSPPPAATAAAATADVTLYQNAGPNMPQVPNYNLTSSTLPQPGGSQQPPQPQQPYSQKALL
UniProt Q8N3U4: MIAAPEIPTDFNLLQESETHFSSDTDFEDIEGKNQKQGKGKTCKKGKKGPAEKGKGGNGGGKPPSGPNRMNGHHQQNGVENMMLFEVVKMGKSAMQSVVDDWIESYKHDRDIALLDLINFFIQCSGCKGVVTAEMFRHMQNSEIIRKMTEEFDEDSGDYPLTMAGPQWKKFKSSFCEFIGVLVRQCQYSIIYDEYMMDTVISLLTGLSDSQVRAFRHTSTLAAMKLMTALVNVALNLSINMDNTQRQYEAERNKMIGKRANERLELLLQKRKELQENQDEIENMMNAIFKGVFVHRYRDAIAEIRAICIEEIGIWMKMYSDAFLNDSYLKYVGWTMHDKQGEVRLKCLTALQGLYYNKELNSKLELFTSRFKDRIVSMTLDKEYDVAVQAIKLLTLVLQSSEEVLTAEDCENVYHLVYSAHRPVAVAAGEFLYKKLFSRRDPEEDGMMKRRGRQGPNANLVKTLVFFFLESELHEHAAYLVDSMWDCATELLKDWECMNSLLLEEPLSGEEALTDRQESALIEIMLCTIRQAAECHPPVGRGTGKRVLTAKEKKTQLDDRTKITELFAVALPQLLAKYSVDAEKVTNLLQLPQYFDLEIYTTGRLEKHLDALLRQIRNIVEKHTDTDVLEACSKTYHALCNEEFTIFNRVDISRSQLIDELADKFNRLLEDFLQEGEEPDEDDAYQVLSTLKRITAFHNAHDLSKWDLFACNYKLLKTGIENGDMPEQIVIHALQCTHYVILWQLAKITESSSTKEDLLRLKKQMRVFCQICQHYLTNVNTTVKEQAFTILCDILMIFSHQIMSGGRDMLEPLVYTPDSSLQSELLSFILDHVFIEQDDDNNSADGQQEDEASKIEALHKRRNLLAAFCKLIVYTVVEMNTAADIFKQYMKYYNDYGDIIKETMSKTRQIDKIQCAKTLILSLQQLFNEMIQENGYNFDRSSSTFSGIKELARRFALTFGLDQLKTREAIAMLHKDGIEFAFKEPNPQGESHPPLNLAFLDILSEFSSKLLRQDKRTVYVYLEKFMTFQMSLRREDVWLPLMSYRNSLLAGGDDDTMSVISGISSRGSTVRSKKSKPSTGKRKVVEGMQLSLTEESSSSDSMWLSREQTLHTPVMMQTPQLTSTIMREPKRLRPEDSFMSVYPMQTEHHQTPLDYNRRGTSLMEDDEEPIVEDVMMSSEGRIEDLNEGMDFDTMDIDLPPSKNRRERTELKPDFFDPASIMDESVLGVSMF
UniProt P31948, whole entry, looked up: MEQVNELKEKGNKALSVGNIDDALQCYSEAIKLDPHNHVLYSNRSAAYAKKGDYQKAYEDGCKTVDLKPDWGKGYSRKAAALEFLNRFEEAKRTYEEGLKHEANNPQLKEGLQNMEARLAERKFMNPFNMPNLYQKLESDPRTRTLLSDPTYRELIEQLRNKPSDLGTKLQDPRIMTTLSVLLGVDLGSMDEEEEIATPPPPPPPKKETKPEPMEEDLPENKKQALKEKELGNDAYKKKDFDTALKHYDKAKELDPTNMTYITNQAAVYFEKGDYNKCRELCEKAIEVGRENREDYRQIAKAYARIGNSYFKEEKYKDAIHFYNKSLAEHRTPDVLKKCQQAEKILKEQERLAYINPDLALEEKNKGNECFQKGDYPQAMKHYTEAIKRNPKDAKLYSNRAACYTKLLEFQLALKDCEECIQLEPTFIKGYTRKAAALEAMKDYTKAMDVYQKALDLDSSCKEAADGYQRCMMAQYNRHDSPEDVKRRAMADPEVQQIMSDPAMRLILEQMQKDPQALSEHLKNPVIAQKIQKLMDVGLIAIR

The list shows a part of the results.

Compound in the assay: C=CC(=O)N1CCC[C@@H](n2nc(-c3ccc(Oc4ccccc4)cc3)c3c(N)ncnc32)C1 [ibrutinib]
Put plainly: log2 fold change, soluble protein after heating vs DMSO (PISA); higher = thermal stabilisation; K562 cells, 10 uM, 30 min; active = over 0.2 and 3.5 SD of the protein, either way, in both replicates (recomputed). An outline of the steps:
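K562 cells at 2×10^6 cells/mL were given 10 μM compound for 30 min. Aliquots then went through 3 min of heating across 48°C-58°C, were pooled, and were extracted in PBS with 0.5% NP-40 at 4°C, and the supernatant after 21,000xg for 90 min was quantified by TMTpro 16plex LC-MS/MS with channel sums equalised. Thermal stability relative to control samples, from duplicates, is given as log2 fold change.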
For SRSF5 (UniProt Q13243), the log2 fold change was inactive: 0.039.

In the case of SPRY4 (UniProt Q9C004), the log2 fold change is inactive: -0.051.

As for SRRT (UniProt Q9BXP5), the log2 fold change is inactive: -0.042.

As for SPCS3 (UniProt P61009), the log2 fold change was inactive: -0.021.

With SPHK1 isoform 2 (UniProt Q9NYA1), the log2 fold change is inactive: -0.021.

On to SPRYD4 (UniProt Q8WW59), for which the log2 fold change was inactive: 0.024.

Consider ST6GALNAC1 (UniProt Q9NSC7), for which the log2 fold change was inactive: 0.031.

As for SRR (UniProt Q9GZT4), the log2 fold change was inactive: -0.013.

For the target SPTAN1 isoform 2 (UniProt Q13813), the log2 fold change is inactive: 0.012.

Turning to SSR1 (UniProt P43307), the log2 fold change was inactive: 0.028.

As to SPRYD7 (UniProt Q5W111), the log2 fold change was inactive: -0.005.

Consider SPCS1, A0A5F9YFS9, for which the log2 fold change is inactive: 0.008.

Take STAU1 (UniProt O95793): the log2 fold change is inactive: 0.052.

Turning to SPN (UniProt P16150), the log2 fold change was inactive: 0.033.

SPIN1 (UniProt Q9Y657): the log2 fold change was inactive: 0.046.

As for SRM (UniProt P19623), the log2 fold change was inactive: 0.023.

As for SQLE (UniProt Q14534), the log2 fold change was inactive: 0.043.

As for STK11 (UniProt Q15831), the log2 fold change was inactive: 0.029.

For the target SPTA1 (UniProt P02549), the log2 fold change is inactive: -0.05.

For the target SRA1 (UniProt Q9HD15), the log2 fold change was inactive: -0.011.

As for STAM (UniProt Q92783), the log2 fold change was inactive: -0.082.

On to STAG2 (UniProt Q8N3U4), for which the log2 fold change was inactive: -0.018.

Regarding STIP1 isoform 2 (UniProt P31948), the log2 fold change was inactive: -0.008.
